Experimental data as given in the supplement of paper PMC10849652.
Some of the results follow. Residues, ends and D or L forms follow the SMILES beside them. *: point of attachment. Cbz = O=C(OCc1ccccc1)*

The chains behind the UniProt entries cited, without tags or fusion partners. Where a name states a change or a piece, a line headed by the entry shows the natural chain unless it says otherwise.
UniProt P62995: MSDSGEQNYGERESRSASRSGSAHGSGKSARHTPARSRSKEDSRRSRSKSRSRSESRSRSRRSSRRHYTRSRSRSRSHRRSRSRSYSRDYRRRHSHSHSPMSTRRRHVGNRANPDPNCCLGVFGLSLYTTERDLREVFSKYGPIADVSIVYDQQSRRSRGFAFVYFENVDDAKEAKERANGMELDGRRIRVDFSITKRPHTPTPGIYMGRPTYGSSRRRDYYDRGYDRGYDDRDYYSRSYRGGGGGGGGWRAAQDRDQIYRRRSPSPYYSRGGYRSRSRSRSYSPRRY
UniProt O14545: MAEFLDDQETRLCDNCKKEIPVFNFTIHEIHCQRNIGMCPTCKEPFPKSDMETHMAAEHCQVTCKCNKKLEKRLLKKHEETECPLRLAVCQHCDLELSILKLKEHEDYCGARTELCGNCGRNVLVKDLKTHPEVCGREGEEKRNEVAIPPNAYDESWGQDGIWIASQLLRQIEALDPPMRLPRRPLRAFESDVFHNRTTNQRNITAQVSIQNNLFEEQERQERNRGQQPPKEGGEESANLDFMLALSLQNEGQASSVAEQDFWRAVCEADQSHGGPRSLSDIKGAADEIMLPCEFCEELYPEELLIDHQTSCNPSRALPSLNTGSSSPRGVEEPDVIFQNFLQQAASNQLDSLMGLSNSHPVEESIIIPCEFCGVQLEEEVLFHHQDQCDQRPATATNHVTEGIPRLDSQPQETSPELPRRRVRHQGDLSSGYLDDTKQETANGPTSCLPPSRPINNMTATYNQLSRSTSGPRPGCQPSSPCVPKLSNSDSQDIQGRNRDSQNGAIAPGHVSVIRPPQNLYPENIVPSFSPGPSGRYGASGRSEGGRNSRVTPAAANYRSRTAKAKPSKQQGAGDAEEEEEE
UniProt O15164: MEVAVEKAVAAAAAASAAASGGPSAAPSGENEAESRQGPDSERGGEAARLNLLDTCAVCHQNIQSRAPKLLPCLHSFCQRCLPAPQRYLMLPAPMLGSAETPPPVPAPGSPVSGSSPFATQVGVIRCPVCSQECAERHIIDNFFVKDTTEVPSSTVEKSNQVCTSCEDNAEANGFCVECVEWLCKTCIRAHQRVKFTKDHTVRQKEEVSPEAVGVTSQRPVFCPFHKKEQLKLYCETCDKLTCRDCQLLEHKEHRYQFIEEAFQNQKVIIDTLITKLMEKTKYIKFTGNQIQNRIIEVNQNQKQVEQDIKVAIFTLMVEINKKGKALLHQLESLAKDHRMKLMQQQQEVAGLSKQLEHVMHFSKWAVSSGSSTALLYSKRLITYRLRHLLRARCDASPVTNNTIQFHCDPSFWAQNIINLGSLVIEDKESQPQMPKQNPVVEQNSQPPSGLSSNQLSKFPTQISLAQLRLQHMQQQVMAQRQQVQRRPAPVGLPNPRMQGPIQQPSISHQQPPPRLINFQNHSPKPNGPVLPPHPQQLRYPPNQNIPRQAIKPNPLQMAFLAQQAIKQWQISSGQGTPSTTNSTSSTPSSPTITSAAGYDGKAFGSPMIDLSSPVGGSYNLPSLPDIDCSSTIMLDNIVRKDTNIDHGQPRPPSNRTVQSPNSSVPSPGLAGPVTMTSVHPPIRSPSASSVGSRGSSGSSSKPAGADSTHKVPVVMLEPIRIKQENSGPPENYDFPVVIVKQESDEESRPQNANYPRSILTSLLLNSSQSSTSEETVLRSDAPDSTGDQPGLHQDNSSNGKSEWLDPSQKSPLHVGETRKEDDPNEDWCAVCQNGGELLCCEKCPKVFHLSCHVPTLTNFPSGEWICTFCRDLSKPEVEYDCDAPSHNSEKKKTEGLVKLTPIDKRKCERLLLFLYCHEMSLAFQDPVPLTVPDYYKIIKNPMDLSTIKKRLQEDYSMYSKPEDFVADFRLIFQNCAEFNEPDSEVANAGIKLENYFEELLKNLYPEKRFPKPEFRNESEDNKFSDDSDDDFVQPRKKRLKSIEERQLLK
UniProt P67936, whole entry, looked up: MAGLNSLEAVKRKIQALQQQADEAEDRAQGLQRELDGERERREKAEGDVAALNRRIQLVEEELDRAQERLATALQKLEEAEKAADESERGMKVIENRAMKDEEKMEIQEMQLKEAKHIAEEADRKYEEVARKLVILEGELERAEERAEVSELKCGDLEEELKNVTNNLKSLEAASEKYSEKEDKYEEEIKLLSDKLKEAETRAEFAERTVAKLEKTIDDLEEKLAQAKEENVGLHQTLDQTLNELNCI
UniProt Q8WWH5: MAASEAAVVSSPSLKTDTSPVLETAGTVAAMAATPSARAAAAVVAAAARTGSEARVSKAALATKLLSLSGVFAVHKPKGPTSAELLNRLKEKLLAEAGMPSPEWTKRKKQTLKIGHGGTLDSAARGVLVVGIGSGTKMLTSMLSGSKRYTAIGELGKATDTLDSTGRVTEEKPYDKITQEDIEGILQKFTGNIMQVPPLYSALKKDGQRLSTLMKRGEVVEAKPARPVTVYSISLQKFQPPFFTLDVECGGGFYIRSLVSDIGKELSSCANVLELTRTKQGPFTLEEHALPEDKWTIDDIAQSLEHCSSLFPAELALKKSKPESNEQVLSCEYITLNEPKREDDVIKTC
UniProt O94826, whole entry, looked up: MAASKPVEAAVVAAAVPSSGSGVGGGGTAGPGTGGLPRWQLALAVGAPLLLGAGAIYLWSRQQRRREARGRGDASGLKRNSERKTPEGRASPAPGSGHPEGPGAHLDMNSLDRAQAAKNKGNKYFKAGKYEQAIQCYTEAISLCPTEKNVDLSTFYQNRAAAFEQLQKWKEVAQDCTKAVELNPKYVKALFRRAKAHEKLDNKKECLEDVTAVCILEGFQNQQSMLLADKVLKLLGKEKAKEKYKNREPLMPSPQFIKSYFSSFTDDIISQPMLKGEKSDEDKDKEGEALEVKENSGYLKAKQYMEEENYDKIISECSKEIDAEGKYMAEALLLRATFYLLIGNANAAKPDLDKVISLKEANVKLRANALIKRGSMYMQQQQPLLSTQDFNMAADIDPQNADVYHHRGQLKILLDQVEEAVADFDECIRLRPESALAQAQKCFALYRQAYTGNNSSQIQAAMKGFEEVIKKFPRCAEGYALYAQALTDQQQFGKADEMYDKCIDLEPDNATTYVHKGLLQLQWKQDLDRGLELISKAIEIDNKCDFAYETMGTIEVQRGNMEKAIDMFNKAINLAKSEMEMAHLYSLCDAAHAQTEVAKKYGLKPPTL
UniProt Q53FA7: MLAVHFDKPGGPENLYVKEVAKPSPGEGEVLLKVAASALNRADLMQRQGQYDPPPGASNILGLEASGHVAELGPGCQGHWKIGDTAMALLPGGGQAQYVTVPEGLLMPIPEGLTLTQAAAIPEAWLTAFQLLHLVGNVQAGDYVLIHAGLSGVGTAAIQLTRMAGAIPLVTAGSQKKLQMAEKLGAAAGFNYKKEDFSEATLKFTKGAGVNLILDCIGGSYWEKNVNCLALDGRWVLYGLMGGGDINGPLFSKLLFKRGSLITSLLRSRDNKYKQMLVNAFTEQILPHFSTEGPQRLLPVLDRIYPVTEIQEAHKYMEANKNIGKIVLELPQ
UniProt O96008: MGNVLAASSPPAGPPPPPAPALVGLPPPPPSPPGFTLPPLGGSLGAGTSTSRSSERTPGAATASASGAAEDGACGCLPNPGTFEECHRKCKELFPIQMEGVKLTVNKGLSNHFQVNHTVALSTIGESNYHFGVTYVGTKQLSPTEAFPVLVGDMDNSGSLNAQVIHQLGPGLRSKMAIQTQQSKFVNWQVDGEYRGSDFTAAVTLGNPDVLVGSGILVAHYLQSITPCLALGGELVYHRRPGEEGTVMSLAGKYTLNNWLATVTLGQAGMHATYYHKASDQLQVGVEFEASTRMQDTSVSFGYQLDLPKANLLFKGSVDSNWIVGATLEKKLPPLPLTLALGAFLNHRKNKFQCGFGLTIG
UniProt Q969M1: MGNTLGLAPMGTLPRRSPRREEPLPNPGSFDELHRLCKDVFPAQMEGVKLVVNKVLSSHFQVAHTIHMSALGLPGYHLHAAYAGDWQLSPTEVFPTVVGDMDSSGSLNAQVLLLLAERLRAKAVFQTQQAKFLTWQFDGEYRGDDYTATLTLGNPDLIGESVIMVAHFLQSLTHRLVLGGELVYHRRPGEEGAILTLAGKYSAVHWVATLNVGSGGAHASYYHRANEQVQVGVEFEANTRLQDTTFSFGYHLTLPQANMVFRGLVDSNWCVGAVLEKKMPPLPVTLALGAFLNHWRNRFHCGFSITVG
UniProt Q96Q05, whole entry, looked up: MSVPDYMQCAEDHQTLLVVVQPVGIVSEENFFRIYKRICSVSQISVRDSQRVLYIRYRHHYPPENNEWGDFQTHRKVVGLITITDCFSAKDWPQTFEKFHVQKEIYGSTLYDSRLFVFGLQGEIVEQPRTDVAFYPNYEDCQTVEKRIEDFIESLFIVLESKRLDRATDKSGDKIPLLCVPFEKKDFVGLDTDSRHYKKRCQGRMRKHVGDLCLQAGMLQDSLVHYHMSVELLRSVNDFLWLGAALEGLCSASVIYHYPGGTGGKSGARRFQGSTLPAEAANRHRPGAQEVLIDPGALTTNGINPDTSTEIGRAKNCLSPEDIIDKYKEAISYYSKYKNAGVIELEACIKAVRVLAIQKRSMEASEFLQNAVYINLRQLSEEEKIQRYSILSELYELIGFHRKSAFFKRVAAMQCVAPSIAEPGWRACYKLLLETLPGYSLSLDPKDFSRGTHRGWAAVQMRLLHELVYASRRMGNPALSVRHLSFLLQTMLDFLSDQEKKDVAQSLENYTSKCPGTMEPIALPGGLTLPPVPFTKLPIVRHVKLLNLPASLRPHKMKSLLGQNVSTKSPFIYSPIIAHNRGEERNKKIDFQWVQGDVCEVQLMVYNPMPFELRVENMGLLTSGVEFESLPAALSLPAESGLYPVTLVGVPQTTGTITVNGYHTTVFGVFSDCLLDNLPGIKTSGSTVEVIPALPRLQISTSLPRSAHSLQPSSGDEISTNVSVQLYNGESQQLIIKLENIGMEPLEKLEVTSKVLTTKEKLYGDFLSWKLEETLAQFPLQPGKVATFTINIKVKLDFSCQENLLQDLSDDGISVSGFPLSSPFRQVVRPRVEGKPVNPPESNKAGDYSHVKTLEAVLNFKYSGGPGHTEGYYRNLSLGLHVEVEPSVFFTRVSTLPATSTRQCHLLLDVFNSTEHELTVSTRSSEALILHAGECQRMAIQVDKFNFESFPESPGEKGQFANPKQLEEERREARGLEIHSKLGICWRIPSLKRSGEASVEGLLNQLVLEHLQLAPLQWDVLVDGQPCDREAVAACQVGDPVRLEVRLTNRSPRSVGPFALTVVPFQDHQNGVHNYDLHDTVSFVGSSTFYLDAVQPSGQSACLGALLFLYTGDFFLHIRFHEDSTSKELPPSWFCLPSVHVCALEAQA
UniProt Q16890: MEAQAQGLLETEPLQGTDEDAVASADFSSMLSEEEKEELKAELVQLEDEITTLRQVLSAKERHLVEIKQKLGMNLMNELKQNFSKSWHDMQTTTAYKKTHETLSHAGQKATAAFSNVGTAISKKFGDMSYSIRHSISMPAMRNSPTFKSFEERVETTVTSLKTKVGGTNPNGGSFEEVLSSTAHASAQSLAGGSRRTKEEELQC
UniProt Q12933: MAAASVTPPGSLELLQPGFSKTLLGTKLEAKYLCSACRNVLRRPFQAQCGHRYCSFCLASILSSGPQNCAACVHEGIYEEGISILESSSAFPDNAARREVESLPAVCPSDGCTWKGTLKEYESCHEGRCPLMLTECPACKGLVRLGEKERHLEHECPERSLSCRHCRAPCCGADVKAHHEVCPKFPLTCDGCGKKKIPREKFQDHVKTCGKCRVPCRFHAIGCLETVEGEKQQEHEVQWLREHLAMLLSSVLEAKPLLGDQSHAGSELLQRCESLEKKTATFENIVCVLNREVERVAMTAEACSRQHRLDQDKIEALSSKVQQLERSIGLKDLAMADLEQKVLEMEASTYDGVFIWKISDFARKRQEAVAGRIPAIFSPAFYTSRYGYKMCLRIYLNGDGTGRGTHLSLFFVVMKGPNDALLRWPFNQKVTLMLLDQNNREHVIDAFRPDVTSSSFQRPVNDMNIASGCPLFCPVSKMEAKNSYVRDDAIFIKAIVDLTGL
UniProt P09493, whole entry, looked up: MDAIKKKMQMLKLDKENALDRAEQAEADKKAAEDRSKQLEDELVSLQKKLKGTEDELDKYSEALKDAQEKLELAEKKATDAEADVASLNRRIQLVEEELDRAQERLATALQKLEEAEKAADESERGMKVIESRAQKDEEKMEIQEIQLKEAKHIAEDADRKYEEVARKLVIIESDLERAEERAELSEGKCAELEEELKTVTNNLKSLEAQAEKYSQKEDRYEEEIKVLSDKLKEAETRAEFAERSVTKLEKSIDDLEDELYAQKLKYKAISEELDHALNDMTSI

How the values were obtained:
Assay in all cases: log2 fold change, soluble protein after heating vs DMSO (PISA); higher = thermal stabilisation; K562 cells, 10 uM, 30 min; active = over 0.2 and 3.5 SD of the protein, either way, in both replicates (recomputed)
[1] = compound: C#Cc1cccc(Nc2ncnc3cc(OCCOC)c(OCCOC)cc23)c1 [erlotinib]
Outline: (§1)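 Quantification of soluble protein used TMTpro 16plex LC-MS/MS, with channel sums equalised. Samples were the supernatant after 21,000xg for 90 min of pooled aliquots from K562 cells (2×10^6 cells/mL) treated with 10 μM compound for 30 min, heated for 3 min over 48°C-58°C, and extracted in PBS with 0.5% NP-40 at 4°C. Values, from duplicates, describe thermal stability against control samples on a log2 fold-change scale.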

[2] = compound: C/C(=N\NC(=O)C1=CC(=CC=C1)S(=O)(=O)N2CCOCC2)/C3=C(C=CC(=C3)Cl)O
Outline: as §1

[3] = compound: C1=CC(=C(C=C1Cl)C2=NC3=NC=CN=C3C(=N2)NC4=CC=NC=C4)F
Outline: as §1

[4] = compound: C1=CC(=CC=C1C2=NC3=C(N2)C=C(C=C3)C(=O)N)OC4=CC=C(C=C4)Cl
Outline: as §1

[5] = compound: C1=CC2=C(C=CC(=C2)/C=C\3/C(=O)NC(=NCC4=CC=CS4)S3)N=C1
Outline: as §1

[6] = compound: C1=CC2=NC=CN=C2C=C1/C=C/3\C(=O)NC(=O)S3
Outline: as §1

[7] = compound: C1=CC=C(C=C1)C2=NC(=C(N2)C3=CC=NC=C3)C4=CC(=C(C=C4)Cl)O
Outline: as §1

[8] = compound: C1=CC=C2C(=C1)C3=NNC4=CC=CC(=C43)C2=O
Outline: as §1

[9] = compound: C1CCN(C1)C(=O)NC2=CC=CC(=C2)NC3=NC=C(C(=N3)NCCC4=CN=CN4)Br
Outline: as §1

[10] = compound: C1CN(CCC1(CC2=CC=C(C=C2)Cl)N)C3=NC=NC4=C3C=CN4
Outline: as §1

[11] = compound: C1COCCN1CCN2C3=CC=CC=C3N=C2NC(=O)C4=CC(=CC=C4)[N+](=O)[O-] [IRAK-1-4 Inhibitor I]
Outline: as §1

[12] = compound: C=CC(=O)N1CCC[C@@H](n2nc(-c3ccc(Oc4ccccc4)cc3)c3c(N)ncnc32)C1 [ibrutinib]
Outline: as §1

[13] = compound: CC(=O)c1cnc2ccc(-c3cc(Cl)c(O)c(Cl)c3)nc2c1N[C@H]1CC[C@H](CN(C)C)CC1
Outline: as §1

[14] = compound: CC(C)(C)Cn1c(N)nc2ccc(-c3[nH]c(C(C)(C)C)nc3-c3ccc(F)cc3)nc21 [ralimetinib]
Outline: as §1

[15] = compound: CC(C)(O)CC(=O)NCCn1ccc2ncnc(Nc3ccc(Oc4cccc(C(F)(F)F)c4)c(Cl)c3)c21
Outline: as §1

[16] = compound: CC(C)C1=C2N=C(C=C(N2N=C1)NCC3=CC=CC=C3)NCCCCCCN
Outline: as §1

[17] = compound: CC(C)C[C@@H](C=O)NC(=O)[C@H](CC(C)C)NC(=O)[C@H](CC(C)C)NC(=O)OCc1ccccc1
Outline: as §1

[18] = compound: CC(C)N(C[C@H]1O[C@@H](n2cnc3c(N)ncnc32)[C@H](O)[C@@H]1O)[C@H]1C[C@@H](CCc2nc3cc(C(C)(C)C)ccc3[nH]2)C1 [pinometostat]
Outline: as §1

[19] = compound: CC1=C(C(CC(=O)N1)C2=CC=C(C=C2)C(F)(F)F)C(=O)NC3=C(C=C4C(=C3)C=NN4)F
Outline: as §1

[20] = compound: CC1=C(C2=C(C=C1)C(=O)C3=CC=CC=C3N2CCCN)C
Outline: as §1

Measured: log2 fold change

TRA2B (UniProt P62995)
inactive: [1] -0.198 | [2] -0.078 | [3] -0.376 | [4] 0.148 | [5] -0.193 | [6] -0.036 | [7] -0.267 | [8] -0.108 | [9] 0.085 | [10] -0.255 | [11] -0.213 | [12] 0.153 | [13] -0.217 | [14] 0.237 | [15] 0.241 | [16] 0.017 | [17] 0.201 | [18] 0.177 | [19] 0.21 | [20] -0.282

TRAFD1 (UniProt O14545)
inactive: [1] -0.004 | [2] -0.017 | [3] 0.075 | [4] 0.016 | [5] -0.102 | [6] 0.029 | [7] -0.034 | [8] -0.036 | [9] -0.038 | [10] 0.057 | [11] -0.009 | [12] 0.037 | [13] 0 | [14] 0.014 | [15] -0.011 | [16] 0.077 | [17] -0.002 | [18] -0.009 | [19] 0.055 | [20] -0.041

TRIM24 (UniProt O15164)
inactive: [1] 0.092 | [2] -0.026 | [3] -0.041 | [4] -0.045 | [5] 0.013 | [6] 0.022 | [7] 0.056 | [8] -0.069 | [9] -0.102 | [10] -0.064 | [11] -0.028 | [12] 0.009 | [13] -0.195 | [14] -0.024 | [15] 0.05 | [16] -0.125 | [17] 0.12 | [18] 0.047 | [19] -0.038 | [20] 0.015

TPM4 isoform 2 (UniProt P67936)
inactive: [1] -0.03 | [2] 0.07 | [3] 0.073 | [4] -0.025 | [5] -0.272 | [6] 0.003 | [7] -0.019 | [8] 0.02 | [9] 0.031 | [10] 0.066 | [11] 0.048 | [12] 0 | [13] 0.046 | [14] -0.036 | [15] 0.02 | [16] 0.025 | [17] 0.036 | [18] -0.114 | [19] 0.016 | [20] -0.044

TRAP1 (UniProt Q12931)
inactive: [1] -0.013 | [2] 0.03 | [3] 0.062 | [4] -0.02 | [5] -0.033 | [6] 0.01 | [7] -0.03 | [8] -0.024 | [9] -0.005 | [10] 0.049 | [11] 0.042 | [12] 0.011 | [13] 0.015 | [14] 0.011 | [15] -0.002 | [16] -0.007 | [17] -0.034 | [18] -0.052 | [19] 0.016 | [20] -0.011

TRUB1 (UniProt Q8WWH5)
inactive: [1] 0.019 | [2] -0.014 | [3] 0.016 | [4] 0.055 | [5] 0.17 | [6] 0.043 | [7] 0.007 | [8] 0.027 | [9] -0.049 | [10] 0.024 | [11] -0.02 | [12] -0.005 | [13] -0.037 | [14] -0.034 | [15] 0.01 | [16] -0.047 | [17] 0.015 | [18] -0.037 | [19] 0.013 | [20] -0.013

TOMM70 (UniProt O94826)
inactive: [1] 0 | [2] 0.031 | [3] 0.043 | [4] -0.016 | [5] 0.026 | [6] 0.002 | [7] 0.014 | [8] 0.039 | [9] 0.012 | [10] 0.016 | [11] -0.001 | [12] -0.043 | [13] -0.037 | [14] -0.005 | [15] -0.008 | [16] -0.005 | [17] 0.001 | [18] -0.04 | [19] -0.03 | [20] 0.009

TRMT112 (UniProt Q9UI30)
inactive: [1] 0.053 | [2] 0.137 | [3] 0.036 | [4] 0.034 | [5] 0.047 | [6] 0.026 | [7] -0.091 | [8] 0.057 | [9] 0.027 | [10] -0.042 | [11] 0.011 | [12] -0.003 | [13] -0.11 | [14] -0.056 | [15] -0.137 | [16] -0.007 | [17] 0.129 | [18] -0.023 | [19] 0.004 | [20] 0.167

TNIK isoform 6 (UniProt Q9UKE5)
inactive: [1] 0.004 | [2] -0.014 | [3] -0.004 | [4] -0.014 | [5] 0.057 | [6] 0.002 | [7] -0.043 | [8] 0.004 | [9] 0.004 | [10] -0.029 | [11] -0.011 | [12] 0.03 | [13] -0.018 | [14] -0.033 | [15] -0.01 | [16] 0.017 | [17] 0.041 | [18] 0.044 | [19] 0.011 | [20] 0.081

TP53I3 (UniProt Q53FA7)
inactive: [1] 0.007 | [2] 0.025 | [3] 0.022 | [4] 0.006 | [5] -0.064 | [6] 0.034 | [7] -0.045 | [8] -0.073 | [9] -0.002 | [10] 0.029 | [11] -0.001 | [12] 0.025 | [13] 0.011 | [14] 0.005 | [15] 0.027 | [16] 0.072 | [17] -0.071 | [18] -0.001 | [19] -0.001 | [20] 0.009

Two entries picked at random from those above:
TP53I3 (UniProt Q53FA7)
inactive: [1] 0.007 | [2] 0.025 | [3] 0.022 | [4] 0.006 | [5] -0.064 | [6] 0.034 | [7] -0.045 | [8] -0.073 | [9] -0.002 | [10] 0.029 | [11] -0.001 | [12] 0.025 | [13] 0.011 | [14] 0.005 | [15] 0.027 | [16] 0.072 | [17] -0.071 | [18] -0.001 | [19] -0.001 | [20] 0.009

TOMM70 (UniProt O94826)
inactive: [1] 0 | [2] 0.031 | [3] 0.043 | [4] -0.016 | [5] 0.026 | [6] 0.002 | [7] 0.014 | [8] 0.039 | [9] 0.012 | [10] 0.016 | [11] -0.001 | [12] -0.043 | [13] -0.037 | [14] -0.005 | [15] -0.008 | [16] -0.005 | [17] 0.001 | [18] -0.04 | [19] -0.03 | [20] 0.009

(list continues)

TOMM40 (UniProt O96008)
inactive: [1] -0.006 | [2] -0.01 | [3] 0.053 | [4] 0.018 | [5] -0.068 | [6] 0.045 | [7] -0.017 | [8] 0.022 | [9] 0.004 | [10] 0.039 | [11] -0.021 | [12] -0.004 | [13] 0.002 | [14] -0.022 | [15] -0.028 | [16] 0.037 | [17] -0.033 | [18] -0.067 | [19] 0.006 | [20] 0.019

TOMM40L (UniProt Q969M1)
inactive: [1] 0.072 | [2] 0.044 | [3] 0.001 | [4] 0.022 | [5] -0.045 | [6] 0.068 | [7] 0.004 | [8] 0.058 | [9] 0.019 | [10] -0.01 | [11] 0.042 | [12] 0.035 | [13] -0.014 | [14] -0.001 | [15] -0.137 | [16] 0.045 | [17] -0.025 | [18] -0.025 | [19] 0.026 | [20] 0.016

TRAPPC9 isoform 2 (UniProt Q96Q05)
inactive: [1] 0.045 | [2] 0.036 | [3] -0.061 | [4] 0.016 | [5] -0.028 | [6] 0.005 | [7] 0.055 | [8] 0.05 | [9] -0.041 | [10] 0.262 | [11] -0.047 | [12] -0.098 | [13] -0.015 | [14] 0.006 | [15] -0.032 | [16] 0.02 | [17] -0.048 | [18] 0.046 | [19] 0.045 | [20] 0.034

TPD52L1 (UniProt Q16890)
inactive: [1] 0.009 | [2] 0.033 | [3] 0.034 | [4] 0.033 | [5] 0.059 | [6] 0.019 | [7] 0.002 | [8] 0.001 | [9] -0.071 | [10] 0.001 | [11] 0.034 | [12] 0.04 | [13] 0 | [14] 0.048 | [15] 0.007 | [16] 0.056 | [17] -0.053 | [18] 0.025 | [19] 0.003 | [20] 0.102

TRAF2 (UniProt Q12933)
inactive: [1] -0.015 | [2] 0.047 | [3] 0.068 | [4] 0.005 | [5] 0.013 | [6] 0.035 | [7] 0.031 | [8] 0.004 | [9] -0.016 | [10] 0.018 | [11] 0.014 | [12] -0.008 | [13] -0.011 | [14] 0.002 | [15] -0.009 | [16] 0.063 | [17] -0.016 | [18] -0.04 | [19] -0.003 | [20] 0.02

TPM1 isoform 4 (UniProt P09493)
inactive: [1] 0 | [2] -0.029 | [3] 0.046 | [4] 0.015 | [5] -0.004 | [6] 0.004 | [7] -0.022 | [8] 0.029 | [9] 0.017 | [10] 0.044 | [11] 0.02 | [12] -0.017 | [13] -0.005 | [14] -0.028 | [15] 0.008 | [16] 0.065 | [17] -0.041 | [18] -0.099 | [19] 0.007 | [20] -0.006
